Laboratory results from patent publication US4980349A, “Sulphonamides derived from diarylmethanes, the processes for preparing them and pharmaceutical compositions containing them” (SANOFI, priority 1986, dated 1990).
Values joined by “and” are separate entries in the source; they are usually repeats but may differ in a detail not shown here. Identical values can stand only once. The name of at least one read-out is uncertain.

Tested on: rat hind foot kaolin-induced arthritis
Assay: Kaolin-induced arthritis test, second experiment, chronic phase (weight of the foot at the 12th hour)
Format: in vivo
Conditions: 100 mg/kg, Table IXb
Procedure: The […] of 0.05 ml of a sterile 10% strength suspension of kaolin into the metatarsal flexor sheath of the hind foot of a rat initially induces an oedematous reaction. An inflammatory arthritis then forms.
The test products are administered orally (stomach tube) one hour before the injection of the kaolin.
In a second experiment, a more elaborate study was performed in order to ascertain the effect of the products, on the one hand on the acute phase of the inflammatory reaction (measured by the volume of the foot at the 8th hour), and on the other hand on the chronic phase (activity measured by the weight of the foot at the 12th hour).
As in the previous experiment, ketoprofen was used as the comparative product: […]

## CC(C(=O)O)c1cccc(C(=O)c2ccccc2)c1 (stereo not shown) [Ketoprofen, ketoprofen, reference compound]
  percentage significant decrease in the weight of the treated foot: -65 ± 5% and -60 ± 5% and -55 ± 5% and -55 ± 7% and -57 ± 5% and -56 ± 5%
